From article PMC4364099 come the findings set out here.

The chains behind the UniProt entries cited, without tags or fusion partners. Residues count along the entry.
UniProt O88427: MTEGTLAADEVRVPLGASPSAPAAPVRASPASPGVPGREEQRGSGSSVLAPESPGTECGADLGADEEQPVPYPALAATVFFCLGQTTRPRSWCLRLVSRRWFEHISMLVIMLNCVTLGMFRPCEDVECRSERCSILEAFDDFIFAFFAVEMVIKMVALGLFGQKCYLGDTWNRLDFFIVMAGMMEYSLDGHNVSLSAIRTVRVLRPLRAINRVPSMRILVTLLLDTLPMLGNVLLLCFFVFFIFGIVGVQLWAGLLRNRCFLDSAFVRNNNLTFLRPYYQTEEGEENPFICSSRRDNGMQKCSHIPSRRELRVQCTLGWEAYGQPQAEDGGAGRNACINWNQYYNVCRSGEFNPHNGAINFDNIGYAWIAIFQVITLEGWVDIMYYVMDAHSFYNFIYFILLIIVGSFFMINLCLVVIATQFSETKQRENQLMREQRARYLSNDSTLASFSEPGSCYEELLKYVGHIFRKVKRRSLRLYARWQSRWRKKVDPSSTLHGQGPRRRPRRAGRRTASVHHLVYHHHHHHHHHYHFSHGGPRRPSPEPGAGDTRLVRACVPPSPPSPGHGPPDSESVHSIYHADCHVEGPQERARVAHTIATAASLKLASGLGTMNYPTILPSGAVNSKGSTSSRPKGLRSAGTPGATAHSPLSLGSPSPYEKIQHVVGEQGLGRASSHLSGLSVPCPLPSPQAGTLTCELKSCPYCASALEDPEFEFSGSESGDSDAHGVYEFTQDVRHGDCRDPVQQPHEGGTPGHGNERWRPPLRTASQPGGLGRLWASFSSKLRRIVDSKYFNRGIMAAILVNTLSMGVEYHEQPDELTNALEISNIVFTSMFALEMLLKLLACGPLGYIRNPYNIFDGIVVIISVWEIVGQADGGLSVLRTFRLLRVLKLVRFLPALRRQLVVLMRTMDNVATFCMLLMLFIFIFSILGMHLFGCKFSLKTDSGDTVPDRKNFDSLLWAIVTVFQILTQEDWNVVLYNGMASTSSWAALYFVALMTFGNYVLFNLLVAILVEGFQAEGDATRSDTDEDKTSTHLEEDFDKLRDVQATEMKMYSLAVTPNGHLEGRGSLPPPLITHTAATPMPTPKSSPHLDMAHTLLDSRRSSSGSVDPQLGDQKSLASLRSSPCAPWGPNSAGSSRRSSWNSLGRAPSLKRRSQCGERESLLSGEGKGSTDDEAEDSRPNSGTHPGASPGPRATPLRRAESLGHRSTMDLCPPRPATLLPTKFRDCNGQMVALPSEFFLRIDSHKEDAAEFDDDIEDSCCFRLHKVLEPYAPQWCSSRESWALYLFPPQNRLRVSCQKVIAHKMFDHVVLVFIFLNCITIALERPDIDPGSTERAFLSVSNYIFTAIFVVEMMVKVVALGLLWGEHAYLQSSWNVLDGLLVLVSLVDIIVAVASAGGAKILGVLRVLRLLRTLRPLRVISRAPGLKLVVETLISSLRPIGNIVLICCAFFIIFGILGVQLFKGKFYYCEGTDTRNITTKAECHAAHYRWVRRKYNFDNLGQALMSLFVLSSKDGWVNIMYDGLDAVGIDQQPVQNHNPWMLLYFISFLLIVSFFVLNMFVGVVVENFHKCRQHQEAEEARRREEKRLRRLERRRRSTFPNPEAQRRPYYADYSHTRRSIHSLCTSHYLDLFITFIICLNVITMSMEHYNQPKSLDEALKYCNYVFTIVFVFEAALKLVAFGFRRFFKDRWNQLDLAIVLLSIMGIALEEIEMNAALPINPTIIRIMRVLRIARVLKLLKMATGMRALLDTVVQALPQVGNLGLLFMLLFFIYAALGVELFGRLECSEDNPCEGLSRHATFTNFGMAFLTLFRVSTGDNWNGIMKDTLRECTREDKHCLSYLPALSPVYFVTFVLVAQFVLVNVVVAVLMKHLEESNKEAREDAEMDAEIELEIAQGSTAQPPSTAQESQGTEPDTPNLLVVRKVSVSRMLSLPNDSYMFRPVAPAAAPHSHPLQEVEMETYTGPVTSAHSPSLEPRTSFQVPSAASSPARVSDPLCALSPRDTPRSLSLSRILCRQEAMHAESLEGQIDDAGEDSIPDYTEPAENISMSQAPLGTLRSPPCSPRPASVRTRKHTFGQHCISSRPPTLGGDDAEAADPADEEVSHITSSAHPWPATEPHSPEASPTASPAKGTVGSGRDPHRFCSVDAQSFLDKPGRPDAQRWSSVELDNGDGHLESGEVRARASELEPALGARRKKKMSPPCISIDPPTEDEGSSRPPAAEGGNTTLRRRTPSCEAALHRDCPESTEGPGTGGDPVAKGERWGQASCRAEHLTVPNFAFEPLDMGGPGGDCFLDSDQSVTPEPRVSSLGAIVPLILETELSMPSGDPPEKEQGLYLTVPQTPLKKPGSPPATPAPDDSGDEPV
UniProt O95180, residues 1556-1602: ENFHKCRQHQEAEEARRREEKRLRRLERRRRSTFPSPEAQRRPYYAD
UniProt P56399: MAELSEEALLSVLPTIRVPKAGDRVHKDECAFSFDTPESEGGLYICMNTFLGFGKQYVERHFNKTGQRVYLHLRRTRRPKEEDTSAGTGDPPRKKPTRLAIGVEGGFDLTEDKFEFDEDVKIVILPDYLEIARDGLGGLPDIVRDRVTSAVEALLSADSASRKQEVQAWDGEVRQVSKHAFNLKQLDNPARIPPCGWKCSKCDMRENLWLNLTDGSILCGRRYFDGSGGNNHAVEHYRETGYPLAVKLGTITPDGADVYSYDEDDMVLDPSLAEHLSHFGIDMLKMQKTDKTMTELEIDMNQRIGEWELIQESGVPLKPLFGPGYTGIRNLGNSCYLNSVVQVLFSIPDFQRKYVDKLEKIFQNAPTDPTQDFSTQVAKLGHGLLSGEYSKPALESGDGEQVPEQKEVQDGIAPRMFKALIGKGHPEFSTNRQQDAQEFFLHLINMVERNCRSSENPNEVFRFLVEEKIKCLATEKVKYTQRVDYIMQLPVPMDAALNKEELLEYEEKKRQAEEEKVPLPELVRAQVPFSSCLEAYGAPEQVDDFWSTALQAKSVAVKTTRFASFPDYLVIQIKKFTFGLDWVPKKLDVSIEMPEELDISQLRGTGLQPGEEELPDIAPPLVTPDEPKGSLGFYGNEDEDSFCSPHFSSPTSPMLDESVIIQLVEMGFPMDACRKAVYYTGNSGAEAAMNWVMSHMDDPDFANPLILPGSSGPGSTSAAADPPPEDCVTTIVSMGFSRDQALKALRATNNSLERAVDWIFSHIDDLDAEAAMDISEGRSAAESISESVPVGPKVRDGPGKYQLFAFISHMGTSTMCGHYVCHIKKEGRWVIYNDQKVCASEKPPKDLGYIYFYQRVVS
UniProt P45974: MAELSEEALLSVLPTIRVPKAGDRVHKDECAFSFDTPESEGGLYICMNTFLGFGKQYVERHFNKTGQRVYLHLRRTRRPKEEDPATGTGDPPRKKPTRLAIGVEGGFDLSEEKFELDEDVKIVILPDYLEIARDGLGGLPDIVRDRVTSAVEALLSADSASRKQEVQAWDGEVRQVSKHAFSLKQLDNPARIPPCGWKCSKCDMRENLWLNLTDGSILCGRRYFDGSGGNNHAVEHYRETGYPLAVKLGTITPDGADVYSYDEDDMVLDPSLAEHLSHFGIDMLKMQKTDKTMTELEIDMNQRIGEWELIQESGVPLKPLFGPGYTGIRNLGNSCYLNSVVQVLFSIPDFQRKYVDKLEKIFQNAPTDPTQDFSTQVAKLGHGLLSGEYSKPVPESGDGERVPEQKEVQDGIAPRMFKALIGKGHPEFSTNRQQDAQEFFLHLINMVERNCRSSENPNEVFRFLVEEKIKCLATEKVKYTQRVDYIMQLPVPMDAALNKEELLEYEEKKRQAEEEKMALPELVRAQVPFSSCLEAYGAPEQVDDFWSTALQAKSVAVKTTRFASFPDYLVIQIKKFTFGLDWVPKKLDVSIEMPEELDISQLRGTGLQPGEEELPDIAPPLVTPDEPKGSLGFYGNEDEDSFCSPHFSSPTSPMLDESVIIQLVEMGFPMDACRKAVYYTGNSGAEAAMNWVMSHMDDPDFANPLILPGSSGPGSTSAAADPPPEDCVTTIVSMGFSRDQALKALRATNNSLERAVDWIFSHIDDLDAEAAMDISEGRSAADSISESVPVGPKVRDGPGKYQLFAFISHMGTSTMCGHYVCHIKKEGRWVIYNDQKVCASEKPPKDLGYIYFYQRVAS

These are yes or no findings as the source states them, for the method shown. For some of these results: In cells and extracts the contact can be indirect. Some binding calls cover weakened binding; strength is not graded here.

Assay [1] concerns the target Cav3.2 channel (endogenous, mouse) (mouse (endogenous in mouse brain and dorsal horn)) (UniProt O88427). Description: co-IP; mouse dorsal horn lysates from naive mice and from diabetic (ob/ob) mice treated i.t. with vehicle or suramin (10 ug); anti-Cav3.2 (H-300) immunoprecipitates probed for USP5 by western blot. A general note: Immunoblotting shows a protein as a band on a membrane.

For assay [2] the target is unchanged. Description: co-IP; whole mouse brain lysate in modified RIPA buffer; anti-Cav3.2 (H-300) with Protein G/A beads overnight at 4°C; immunoprecipitates incubated with vehicle, suramin, gossypetin or oxytetracycline; blot for USP5.
Assay [3] deals with biotinylated human Cav3.2(1556-1602)-III-IV linker peptide (46 mer) (human) (UniProt O95180). The assay can be described thus: ELISA; 96-well neutravidin-coated plate with 5 ug biotinylated Cav3.2 46 mer; 0.5 ug recombinant hUSP5 long, preincubated or not with 50 ug non-biotinylated 21 mer for 1 h at RT; 50 mM Tris, 150 mM NaCl, 0.05% Tween-20; detection by rabbit anti-USP5, HRP secondary, QuantaBlu RFU (Ex/Em 325/440 nm); both purified. (In general: In an ELISA, binding on a coated surface is turned into a signal by an enzyme label.)

Assay [4] shares this target. The assay can be described thus: ELISA; 384-well screening format: neutravidin-coated plates, biotinylated Cav3.2 III-IV linker peptide (0.0039 ug/ul, 15 ul), USP5 (0.00078 ug/ul, 15 ul), Tris buffer (50 mM Tris, 150 mM NaCl, pH 7.5), RT; compounds at 6.3 uM; negative control wells without USP5; detection by anti-USP5, HRP secondary, QuantaBlu RFU; both purified.

In the case of “USP5 (endogenous, mouse) (from UniProt P56399 1-858) (enzyme)”, the binding entry in assay [1] and in assay [2] was “binds” in each case.
As for “recombinant human USP5 (long splice isoform) (from UniProt P45974 1-858) (enzyme)”, the binding entry in assay [3] and in assay [4] was “binds” throughout.
